Compound in the test: Nc1ncnc2c1ncn2[C@@H]1O[C@H](COP(=O)(O)OP(=O)(O)OP(=O)(O)O)[C@@H](O)[C@H]1O [adenosine triphosphate]
Briefly: NP40-soluble protein abundance relative to vehicle (solubility fold change) (ratio); higher = more soluble protein in presence of ATP. In outline: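 Jurkat crude lysate (Dounce-homogenised) was treated with eight concentrations from 0.1 to 10 mM for 10 min at room temperature, then 3 min at 37 °C. It was solubilised with 0.8% NP40 and benzonase (60 min, 4 °C) and ultracentrifuged, and the supernatant was TMT-labelled for LC-MS/MS. Intensities were vsn-normalised, and the value is the fold change against the NP40-processed vehicle per replicate, from three independent experiments.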

Protein sequences, listed by entry. Tags and fused reporters are not part of them. Lines headed by an entry give the natural chain unless they say otherwise; changes in a name come on top.
UniProt O15355: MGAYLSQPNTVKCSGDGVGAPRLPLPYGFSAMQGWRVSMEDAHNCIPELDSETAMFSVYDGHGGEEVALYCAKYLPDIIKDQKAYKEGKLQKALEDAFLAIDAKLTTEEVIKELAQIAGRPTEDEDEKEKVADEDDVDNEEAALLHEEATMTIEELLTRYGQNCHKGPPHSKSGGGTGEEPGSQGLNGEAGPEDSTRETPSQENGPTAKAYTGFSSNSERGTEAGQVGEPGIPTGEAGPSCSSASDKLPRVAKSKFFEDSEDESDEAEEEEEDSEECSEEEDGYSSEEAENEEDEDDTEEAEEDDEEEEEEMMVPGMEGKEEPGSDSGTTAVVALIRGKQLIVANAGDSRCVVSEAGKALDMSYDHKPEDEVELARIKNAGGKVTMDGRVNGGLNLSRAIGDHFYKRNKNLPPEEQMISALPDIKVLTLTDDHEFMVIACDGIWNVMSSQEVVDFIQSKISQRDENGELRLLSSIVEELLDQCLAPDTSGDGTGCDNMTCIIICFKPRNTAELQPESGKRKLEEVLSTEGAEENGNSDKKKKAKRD
UniProt O43719: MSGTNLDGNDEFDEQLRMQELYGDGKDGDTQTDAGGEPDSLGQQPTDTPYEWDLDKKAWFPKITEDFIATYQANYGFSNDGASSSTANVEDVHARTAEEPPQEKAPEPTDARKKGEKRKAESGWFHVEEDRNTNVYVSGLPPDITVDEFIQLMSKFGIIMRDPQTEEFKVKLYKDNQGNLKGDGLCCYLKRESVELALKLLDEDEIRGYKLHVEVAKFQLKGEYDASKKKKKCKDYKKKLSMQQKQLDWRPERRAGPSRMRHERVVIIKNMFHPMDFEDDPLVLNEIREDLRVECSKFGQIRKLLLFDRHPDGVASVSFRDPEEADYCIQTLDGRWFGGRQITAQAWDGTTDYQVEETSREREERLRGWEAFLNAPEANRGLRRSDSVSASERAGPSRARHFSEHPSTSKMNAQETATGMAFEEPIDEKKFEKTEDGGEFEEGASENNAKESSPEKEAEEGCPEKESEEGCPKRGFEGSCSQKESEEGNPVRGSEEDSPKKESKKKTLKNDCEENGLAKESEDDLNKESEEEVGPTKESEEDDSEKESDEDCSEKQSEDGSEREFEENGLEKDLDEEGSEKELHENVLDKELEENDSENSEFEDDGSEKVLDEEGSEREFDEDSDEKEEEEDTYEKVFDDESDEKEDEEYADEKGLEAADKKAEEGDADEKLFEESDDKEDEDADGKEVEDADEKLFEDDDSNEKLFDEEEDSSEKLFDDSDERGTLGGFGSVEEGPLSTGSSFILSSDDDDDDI
UniProt O43920, whole entry: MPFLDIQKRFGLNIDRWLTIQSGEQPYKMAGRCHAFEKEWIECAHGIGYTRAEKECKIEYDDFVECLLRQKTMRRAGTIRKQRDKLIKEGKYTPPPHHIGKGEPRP
UniProt O14880: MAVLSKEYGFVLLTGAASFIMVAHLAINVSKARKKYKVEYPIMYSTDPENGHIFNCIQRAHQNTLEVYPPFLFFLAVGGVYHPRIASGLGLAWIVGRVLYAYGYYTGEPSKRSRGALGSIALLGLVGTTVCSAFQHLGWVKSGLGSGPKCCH
UniProt O60293: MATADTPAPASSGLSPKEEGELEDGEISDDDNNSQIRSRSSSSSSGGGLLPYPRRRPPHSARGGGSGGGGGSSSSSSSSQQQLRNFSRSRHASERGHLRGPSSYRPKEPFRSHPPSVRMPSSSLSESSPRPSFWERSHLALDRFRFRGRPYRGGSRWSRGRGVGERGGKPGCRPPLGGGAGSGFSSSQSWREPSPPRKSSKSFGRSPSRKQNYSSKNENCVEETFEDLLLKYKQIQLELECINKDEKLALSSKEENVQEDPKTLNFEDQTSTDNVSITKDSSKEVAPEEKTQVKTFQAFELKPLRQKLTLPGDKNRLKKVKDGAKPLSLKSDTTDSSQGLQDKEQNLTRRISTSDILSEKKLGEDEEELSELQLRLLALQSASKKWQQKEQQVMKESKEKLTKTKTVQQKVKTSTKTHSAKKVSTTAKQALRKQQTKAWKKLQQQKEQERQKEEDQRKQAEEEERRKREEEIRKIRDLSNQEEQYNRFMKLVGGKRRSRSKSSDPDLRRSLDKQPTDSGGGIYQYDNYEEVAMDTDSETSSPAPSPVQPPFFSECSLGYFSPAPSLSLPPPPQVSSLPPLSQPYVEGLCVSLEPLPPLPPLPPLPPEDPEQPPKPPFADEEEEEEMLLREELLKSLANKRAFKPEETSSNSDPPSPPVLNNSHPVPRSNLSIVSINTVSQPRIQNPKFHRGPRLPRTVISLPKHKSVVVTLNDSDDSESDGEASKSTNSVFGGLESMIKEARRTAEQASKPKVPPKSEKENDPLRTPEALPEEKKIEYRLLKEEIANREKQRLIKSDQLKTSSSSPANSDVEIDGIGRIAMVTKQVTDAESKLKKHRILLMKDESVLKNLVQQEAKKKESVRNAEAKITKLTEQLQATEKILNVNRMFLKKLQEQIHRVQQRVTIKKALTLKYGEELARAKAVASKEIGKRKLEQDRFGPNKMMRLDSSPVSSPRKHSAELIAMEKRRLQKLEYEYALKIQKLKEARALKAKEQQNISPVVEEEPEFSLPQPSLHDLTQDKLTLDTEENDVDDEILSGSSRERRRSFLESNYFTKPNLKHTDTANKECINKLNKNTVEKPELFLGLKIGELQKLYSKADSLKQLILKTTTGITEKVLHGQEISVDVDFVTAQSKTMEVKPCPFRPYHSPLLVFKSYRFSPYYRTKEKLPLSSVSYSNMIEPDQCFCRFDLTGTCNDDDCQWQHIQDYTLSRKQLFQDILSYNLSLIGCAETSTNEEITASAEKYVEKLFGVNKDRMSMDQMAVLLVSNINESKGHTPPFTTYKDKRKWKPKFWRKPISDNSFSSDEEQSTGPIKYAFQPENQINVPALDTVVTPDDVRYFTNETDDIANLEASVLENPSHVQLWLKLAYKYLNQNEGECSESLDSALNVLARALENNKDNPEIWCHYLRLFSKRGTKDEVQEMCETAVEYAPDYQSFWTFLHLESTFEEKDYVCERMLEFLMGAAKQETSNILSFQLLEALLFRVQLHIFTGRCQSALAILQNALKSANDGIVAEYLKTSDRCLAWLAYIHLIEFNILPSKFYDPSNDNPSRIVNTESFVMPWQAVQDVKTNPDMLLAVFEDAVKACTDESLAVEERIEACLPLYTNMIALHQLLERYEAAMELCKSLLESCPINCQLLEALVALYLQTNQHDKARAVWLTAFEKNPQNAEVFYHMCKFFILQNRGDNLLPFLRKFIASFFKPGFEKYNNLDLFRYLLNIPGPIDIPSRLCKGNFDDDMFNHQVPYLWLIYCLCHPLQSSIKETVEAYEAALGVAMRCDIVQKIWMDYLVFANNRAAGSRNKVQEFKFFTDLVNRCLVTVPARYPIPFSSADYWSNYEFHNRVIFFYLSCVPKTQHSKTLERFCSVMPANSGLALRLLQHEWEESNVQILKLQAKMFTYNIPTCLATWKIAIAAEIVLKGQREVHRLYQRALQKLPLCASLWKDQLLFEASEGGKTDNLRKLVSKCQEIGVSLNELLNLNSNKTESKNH
UniProt O15127: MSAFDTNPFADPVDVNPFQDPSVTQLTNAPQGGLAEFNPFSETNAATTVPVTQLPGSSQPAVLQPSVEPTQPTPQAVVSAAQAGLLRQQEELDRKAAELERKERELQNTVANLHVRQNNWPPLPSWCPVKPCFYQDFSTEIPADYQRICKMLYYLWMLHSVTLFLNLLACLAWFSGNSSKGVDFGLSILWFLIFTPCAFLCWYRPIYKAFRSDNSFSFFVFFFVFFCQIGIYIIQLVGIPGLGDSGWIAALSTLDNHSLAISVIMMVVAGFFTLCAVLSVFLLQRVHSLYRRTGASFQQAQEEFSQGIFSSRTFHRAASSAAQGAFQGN
UniProt Q13459: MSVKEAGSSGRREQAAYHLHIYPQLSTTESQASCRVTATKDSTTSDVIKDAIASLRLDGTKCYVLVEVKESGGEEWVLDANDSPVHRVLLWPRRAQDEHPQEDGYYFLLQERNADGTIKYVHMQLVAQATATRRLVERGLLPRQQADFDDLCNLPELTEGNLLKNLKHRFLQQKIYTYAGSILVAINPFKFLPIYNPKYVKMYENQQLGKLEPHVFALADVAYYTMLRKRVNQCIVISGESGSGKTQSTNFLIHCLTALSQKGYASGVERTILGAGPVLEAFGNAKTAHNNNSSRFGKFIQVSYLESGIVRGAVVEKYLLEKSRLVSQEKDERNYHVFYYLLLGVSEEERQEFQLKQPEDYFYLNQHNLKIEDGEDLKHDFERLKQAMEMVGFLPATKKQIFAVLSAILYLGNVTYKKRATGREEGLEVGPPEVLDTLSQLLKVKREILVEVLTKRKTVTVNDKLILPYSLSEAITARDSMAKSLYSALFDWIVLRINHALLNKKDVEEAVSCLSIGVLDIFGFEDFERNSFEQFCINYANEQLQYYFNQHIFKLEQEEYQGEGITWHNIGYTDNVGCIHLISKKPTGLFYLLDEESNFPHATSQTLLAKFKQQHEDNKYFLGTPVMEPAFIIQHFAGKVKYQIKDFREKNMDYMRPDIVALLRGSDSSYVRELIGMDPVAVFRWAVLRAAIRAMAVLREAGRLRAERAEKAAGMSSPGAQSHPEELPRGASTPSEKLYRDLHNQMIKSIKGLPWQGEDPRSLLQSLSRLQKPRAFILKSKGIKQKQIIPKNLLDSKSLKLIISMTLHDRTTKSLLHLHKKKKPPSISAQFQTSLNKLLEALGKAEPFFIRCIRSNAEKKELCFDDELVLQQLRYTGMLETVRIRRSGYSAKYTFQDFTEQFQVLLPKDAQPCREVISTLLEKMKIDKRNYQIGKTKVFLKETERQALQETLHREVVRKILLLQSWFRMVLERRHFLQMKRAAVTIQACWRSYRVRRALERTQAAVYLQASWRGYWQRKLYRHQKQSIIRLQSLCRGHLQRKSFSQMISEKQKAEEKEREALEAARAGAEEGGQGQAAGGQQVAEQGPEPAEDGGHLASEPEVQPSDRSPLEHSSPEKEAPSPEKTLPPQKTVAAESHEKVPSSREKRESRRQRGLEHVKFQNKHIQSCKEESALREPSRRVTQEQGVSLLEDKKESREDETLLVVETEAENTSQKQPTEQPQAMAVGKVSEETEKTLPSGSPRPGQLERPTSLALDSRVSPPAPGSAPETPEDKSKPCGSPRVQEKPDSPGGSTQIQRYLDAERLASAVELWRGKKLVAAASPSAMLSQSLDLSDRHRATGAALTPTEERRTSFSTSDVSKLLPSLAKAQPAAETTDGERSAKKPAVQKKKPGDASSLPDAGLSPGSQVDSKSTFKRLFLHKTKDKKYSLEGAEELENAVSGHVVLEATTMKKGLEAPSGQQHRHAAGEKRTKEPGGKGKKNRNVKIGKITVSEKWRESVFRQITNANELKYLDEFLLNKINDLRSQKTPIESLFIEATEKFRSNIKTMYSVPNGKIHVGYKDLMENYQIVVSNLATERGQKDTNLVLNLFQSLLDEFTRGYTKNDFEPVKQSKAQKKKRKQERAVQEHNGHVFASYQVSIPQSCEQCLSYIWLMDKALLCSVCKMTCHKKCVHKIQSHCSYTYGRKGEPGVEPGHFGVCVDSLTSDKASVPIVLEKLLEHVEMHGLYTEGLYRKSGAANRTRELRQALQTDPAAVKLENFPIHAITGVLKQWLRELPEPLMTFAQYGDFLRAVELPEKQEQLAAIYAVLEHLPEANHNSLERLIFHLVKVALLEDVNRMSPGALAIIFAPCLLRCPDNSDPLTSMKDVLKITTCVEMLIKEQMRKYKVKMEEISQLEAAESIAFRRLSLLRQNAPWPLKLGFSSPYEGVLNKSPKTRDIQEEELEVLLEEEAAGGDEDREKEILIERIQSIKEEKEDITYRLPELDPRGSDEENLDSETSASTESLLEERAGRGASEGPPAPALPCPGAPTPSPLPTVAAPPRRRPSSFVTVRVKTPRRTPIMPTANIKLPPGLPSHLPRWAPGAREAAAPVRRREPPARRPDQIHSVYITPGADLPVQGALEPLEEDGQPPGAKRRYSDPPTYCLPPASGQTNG
UniProt O14879: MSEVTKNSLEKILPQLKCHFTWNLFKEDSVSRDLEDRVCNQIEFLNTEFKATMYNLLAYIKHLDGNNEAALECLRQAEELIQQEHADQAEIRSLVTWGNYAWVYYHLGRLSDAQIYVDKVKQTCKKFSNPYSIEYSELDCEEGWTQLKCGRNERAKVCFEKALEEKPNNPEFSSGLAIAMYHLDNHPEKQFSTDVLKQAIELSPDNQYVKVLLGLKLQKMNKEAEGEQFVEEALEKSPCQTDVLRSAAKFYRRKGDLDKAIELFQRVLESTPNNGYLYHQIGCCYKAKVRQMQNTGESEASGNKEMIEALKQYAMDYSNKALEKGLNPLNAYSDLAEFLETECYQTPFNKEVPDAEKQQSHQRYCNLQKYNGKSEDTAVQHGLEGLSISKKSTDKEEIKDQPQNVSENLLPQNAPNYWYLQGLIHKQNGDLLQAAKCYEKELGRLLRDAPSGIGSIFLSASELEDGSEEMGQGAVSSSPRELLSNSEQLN

± gives the standard deviation of the averaged measurements. Only a part is listed here, and it is no random draw.

Drawing on the supplement of paper PMC6411743, this text covers NP40-soluble protein abundance for 15 targets.

For the target PPM1G (UniProt O15355), the NP40-soluble protein abundance reads like this: (concentration: 1mM) 0.947 ± 0.05; (concentration: 2mM) 0.947 ± 0.032; (concentration: 4mM) 0.901 ± 0.022; (concentration: 6mM) 0.981 ± 0.038; (concentration: 8mM) 0.888 ± 0.033; (concentration: 10mM) 0.9013 ± 0.0062.

With FOXO3 (UniProt O43524), the NP40-soluble protein abundance turned out to be 0.904 ± 0.068 (concentration: 1mM); 0.919 ± 0.018 (concentration: 2mM); 0.961 ± 0.12 (concentration: 4mM); 0.926 ± 0.031 (concentration: 6mM); 0.88 ± 0.04 (concentration: 8mM); 0.882 ± 0.028 (concentration: 10mM).

Take HTATSF1 (UniProt O43719): the NP40-soluble protein abundance is, setting by setting: (concentration: 1mM) 0.884 ± 0.022; (concentration: 2mM) 0.859 ± 0.012; (concentration: 4mM) 0.796 ± 0.015; (concentration: 6mM) 0.847 ± 0.013; (concentration: 8mM) 0.7503 ± 0.0064; (concentration: 10mM) 0.746 ± 0.013.

For the target SLC33A1 (UniProt O00400), the NP40-soluble protein abundance runs as follows: (concentration: 1mM) 1.04 ± 0.13; (concentration: 2mM) 0.992 ± 0.056; (concentration: 4mM) 0.989 ± 0.079; (concentration: 6mM) 0.901 ± 0.19; (concentration: 8mM) 1.02 ± 0.16; (concentration: 10mM) 0.972 ± 0.075.

As for NDUFS5 (UniProt O43920), the NP40-soluble protein abundance was 1.01 ± 0.05 (concentration: 1mM); 0.983 ± 0.012 (concentration: 2mM); 0.963 ± 0.016 (concentration: 4mM); 0.988 ± 0.064 (concentration: 6mM); 0.977 ± 0.066 (concentration: 8mM); 0.941 ± 0.068 (concentration: 10mM).

Take UniProt O14880 and related entries: the NP40-soluble protein abundance is, setting by setting: (concentration: 1mM) 1.07 ± 0.039; (concentration: 2mM) 1.1 ± 0.096; (concentration: 4mM) 1 ± 0.08; (concentration: 6mM) 1.07 ± 0.1; (concentration: 8mM) 1.06 ± 0.037; (concentration: 10mM) 1.05 ± 0.088.

As to UniProt O60293 and related entries, the NP40-soluble protein abundance reads like this: (concentration: 1mM) 1.06 ± 0.057; (concentration: 2mM) 1.09 ± 0.071; (concentration: 4mM) 1.1 ± 0.064; (concentration: 6mM) 1.14 ± 0.12; (concentration: 8mM) 1.09 ± 0.098; (concentration: 10mM) 1.12 ± 0.085.

Consider UniProt O43148 and related entries, for which the NP40-soluble protein abundance runs as follows: (concentration: 1mM) 1.03 ± 0.046; (concentration: 2mM) 1.02 ± 0.05; (concentration: 4mM) 1.01 ± 0.032; (concentration: 6mM) 1.05 ± 0.04; (concentration: 8mM) 1.03 ± 0.061; (concentration: 10mM) 1.02 ± 0.025.

In the case of SCAMP2 (UniProt O15127), the NP40-soluble protein abundance came to 0.917 ± 0.031 (concentration: 1mM); 0.961 ± 0.023 (concentration: 2mM); 0.963 ± 0.04 (concentration: 4mM); 0.98 ± 0.057 (concentration: 6mM); 0.922 ± 0.043 (concentration: 8mM); 0.955 ± 0.039 (concentration: 10mM).

For “M0R0P8 and related entries (UniProt Q13459)”, the NP40-soluble protein abundance runs as follows: (concentration: 1mM) 1.06 ± 0.024; (concentration: 2mM) 1.03 ± 0.034; (concentration: 4mM) 1.02 ± 0.017; (concentration: 6mM) 1.01 ± 0.035; (concentration: 8mM) 1.01 ± 0.032; (concentration: 10mM) 1.01 ± 0.042.

For IFIT3 (UniProt O14879), the NP40-soluble protein abundance (concentration: 1mM) was determined as 0.906 ± 0.1; the NP40-soluble protein abundance (concentration: 2mM) amounted to 0.885 ± 0.12; the NP40-soluble protein abundance (concentration: 4mM) was 0.909 ± 0.11; the NP40-soluble protein abundance (concentration: 6mM) amounted to 0.893 ± 0.14; the NP40-soluble protein abundance (concentration: 8mM) was 0.862 ± 0.11; the NP40-soluble protein abundance (concentration: 10mM) came to 0.873 ± 0.12.

As to UniProt O43684 and related entries, the NP40-soluble protein abundance reads like this: (concentration: 1mM) 1.09 ± 0.095; (concentration: 2mM) 1.11 ± 0.05; (concentration: 4mM) 1.11 ± 0.058; (concentration: 6mM) 1.1 ± 0.089; (concentration: 8mM) 1.1 ± 0.036; (concentration: 10mM) 1.12 ± 0.031.

As to PFAS (UniProt O15067), the NP40-soluble protein abundance (concentration: 1mM) was 0.991 ± 0.012; the NP40-soluble protein abundance (concentration: 2mM) is 0.983 ± 0.014; the NP40-soluble protein abundance (concentration: 4mM) is 0.98 ± 0.0047; the NP40-soluble protein abundance (concentration: 6mM) was determined as 0.951 ± 0.035; the NP40-soluble protein abundance (concentration: 8mM) was 0.968 ± 0.011; the NP40-soluble protein abundance (concentration: 10mM) was determined as 0.964 ± 0.034.

As for UniProt O43736 and related entries, the NP40-soluble protein abundance runs as follows: (concentration: 1mM) 0.964 ± 0.062; (concentration: 2mM) 0.92 ± 0.042; (concentration: 4mM) 0.902 ± 0.046; (concentration: 6mM) 0.905 ± 0.043; (concentration: 8mM) 0.921 ± 0.078; (concentration: 10mM) 0.932 ± 0.077.

Turning to UniProt O43747 and related entries, the NP40-soluble protein abundance (concentration: 1mM) is 0.938 ± 0.071; the NP40-soluble protein abundance (concentration: 2mM) turned out to be 0.95 ± 0.083; the NP40-soluble protein abundance (concentration: 4mM) turned out to be 0.917 ± 0.027; the NP40-soluble protein abundance (concentration: 6mM) came to 0.864 ± 0.087; the NP40-soluble protein abundance (concentration: 8mM) was found to be 0.928 ± 0.017; the NP40-soluble protein abundance (concentration: 10mM) came out at 0.945 ± 0.034.
